Numbering of substitutions follows the chain as printed. The entries are a selection whose mix differs from that of the whole data set. Calls are pooled over several reports, among them a noisy single-well screen. Some of the results follow.
Tests used:
Conditions in all cases: stereoisomer not certain
O2T11 = system: T1, O2T11
T1 sequence (whole entry): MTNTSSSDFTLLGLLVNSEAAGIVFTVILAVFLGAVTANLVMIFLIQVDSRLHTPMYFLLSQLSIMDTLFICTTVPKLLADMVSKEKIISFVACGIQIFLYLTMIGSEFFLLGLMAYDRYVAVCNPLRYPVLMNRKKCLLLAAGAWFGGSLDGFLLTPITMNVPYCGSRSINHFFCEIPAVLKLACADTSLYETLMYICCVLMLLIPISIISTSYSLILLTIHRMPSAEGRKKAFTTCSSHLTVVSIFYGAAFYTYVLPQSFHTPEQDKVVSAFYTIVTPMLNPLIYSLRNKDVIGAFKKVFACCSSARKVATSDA
In short: (§1)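 Each receptor–molecule pair is labelled responsive or non-responsive (inactive) according to whether the original authors judged the measured signal statistically different from baseline. The data were taken from the main text and supplementary material of published papers and checked for typos and inconsistencies. Assay methods differed by source, with transient luciferase assays in mammalian cell lines being common.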

Chains of the proteins cited; added tags and fusions are not shown. Chains listed by the source or under a name are the forms on record and can include a tag or linker.
O4F17, as listed by the source: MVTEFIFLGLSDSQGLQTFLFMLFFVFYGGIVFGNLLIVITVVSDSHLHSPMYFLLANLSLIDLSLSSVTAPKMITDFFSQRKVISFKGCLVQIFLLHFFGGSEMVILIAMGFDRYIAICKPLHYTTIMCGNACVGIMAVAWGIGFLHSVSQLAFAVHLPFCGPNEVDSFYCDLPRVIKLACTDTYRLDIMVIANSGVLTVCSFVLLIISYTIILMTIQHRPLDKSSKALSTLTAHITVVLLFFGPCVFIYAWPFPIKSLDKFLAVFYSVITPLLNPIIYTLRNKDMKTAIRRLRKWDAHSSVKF
O4C46, as listed by the source: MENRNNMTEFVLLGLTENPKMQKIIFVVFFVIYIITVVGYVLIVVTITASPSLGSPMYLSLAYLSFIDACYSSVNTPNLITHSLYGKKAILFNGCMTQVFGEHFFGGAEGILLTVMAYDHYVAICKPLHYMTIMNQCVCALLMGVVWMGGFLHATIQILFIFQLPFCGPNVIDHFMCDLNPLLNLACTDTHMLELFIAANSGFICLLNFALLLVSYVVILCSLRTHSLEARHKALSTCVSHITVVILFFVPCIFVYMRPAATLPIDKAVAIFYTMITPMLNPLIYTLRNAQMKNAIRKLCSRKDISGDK
O4A15, as listed by the source: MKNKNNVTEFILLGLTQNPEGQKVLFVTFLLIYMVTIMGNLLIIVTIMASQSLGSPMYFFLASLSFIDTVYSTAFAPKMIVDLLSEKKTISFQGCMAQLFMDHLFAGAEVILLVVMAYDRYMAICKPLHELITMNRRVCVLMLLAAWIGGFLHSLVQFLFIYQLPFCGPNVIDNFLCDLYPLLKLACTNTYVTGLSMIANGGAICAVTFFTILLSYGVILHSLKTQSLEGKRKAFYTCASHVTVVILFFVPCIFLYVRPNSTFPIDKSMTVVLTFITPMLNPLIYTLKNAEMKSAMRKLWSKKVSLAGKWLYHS

O2T29 [1] = system: T2, O2T29
T2 sequence (whole entry): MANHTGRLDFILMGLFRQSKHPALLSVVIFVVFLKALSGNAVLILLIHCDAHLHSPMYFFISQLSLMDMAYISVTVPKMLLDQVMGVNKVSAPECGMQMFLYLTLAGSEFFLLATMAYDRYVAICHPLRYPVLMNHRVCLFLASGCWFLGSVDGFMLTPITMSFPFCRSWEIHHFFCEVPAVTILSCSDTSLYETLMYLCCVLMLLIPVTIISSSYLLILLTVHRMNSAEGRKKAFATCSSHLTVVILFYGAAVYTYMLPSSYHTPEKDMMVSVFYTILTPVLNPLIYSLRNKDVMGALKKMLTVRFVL
In short: as §1

O2T29 [2] = system: T3, O2T29; remark: listed apart in the source
T3 sequence (whole entry): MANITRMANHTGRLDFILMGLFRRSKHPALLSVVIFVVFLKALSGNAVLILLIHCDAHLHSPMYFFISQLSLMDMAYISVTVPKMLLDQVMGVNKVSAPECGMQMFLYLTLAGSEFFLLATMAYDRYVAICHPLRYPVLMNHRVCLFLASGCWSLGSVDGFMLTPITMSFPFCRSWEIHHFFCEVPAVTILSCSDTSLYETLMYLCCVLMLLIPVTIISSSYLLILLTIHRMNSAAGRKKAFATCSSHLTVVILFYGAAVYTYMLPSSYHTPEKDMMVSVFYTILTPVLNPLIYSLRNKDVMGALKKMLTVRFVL
In short: as §1

O2T33 = system: T4, O2T33
T4 sequence (whole entry): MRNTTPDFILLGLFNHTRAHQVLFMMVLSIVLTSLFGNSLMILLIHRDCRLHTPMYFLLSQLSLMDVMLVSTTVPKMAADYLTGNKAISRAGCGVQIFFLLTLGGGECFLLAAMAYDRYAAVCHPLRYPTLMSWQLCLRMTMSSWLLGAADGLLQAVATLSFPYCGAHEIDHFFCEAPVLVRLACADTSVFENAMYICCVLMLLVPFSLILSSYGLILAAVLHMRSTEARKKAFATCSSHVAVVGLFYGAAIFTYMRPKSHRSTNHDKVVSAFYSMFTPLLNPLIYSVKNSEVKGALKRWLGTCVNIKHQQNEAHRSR
In short: as §1

O2T34 = system: T5, O2T34
T5 sequence (whole entry): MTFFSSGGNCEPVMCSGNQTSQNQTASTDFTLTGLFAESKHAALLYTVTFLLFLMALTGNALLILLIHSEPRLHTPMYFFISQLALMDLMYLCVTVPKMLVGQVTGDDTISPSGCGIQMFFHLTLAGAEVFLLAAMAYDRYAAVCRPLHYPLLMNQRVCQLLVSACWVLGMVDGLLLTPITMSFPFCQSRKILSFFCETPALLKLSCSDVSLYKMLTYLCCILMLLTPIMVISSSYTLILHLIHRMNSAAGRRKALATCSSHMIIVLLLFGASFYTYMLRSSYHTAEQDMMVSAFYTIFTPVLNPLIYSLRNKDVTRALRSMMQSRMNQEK
In short: as §1

O2T35 = system: T6, O2T35
T6 sequence (whole entry): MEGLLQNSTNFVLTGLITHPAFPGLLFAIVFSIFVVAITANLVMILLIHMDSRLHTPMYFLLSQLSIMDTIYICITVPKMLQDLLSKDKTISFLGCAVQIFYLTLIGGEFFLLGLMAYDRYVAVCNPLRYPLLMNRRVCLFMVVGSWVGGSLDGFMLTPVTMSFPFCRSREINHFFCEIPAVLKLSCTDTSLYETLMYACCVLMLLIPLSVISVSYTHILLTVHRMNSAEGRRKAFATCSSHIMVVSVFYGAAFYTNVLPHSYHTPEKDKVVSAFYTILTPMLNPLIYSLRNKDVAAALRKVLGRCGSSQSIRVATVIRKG
In short: as §1

O4A15 = system: O4A15
In short: as §1

O4A47 = system: T7, O4A47
T7 sequence (whole entry): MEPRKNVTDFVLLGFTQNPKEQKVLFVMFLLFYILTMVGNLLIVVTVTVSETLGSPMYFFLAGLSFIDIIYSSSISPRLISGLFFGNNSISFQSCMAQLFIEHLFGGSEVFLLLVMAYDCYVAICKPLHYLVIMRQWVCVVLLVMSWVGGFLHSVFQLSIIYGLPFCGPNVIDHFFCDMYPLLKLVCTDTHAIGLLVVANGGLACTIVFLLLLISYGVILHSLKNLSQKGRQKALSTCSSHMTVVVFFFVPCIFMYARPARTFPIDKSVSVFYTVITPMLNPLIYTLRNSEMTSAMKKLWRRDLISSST
In short: as §1

O4C46 = system: O4C46
In short: as §1

O4F17 [3] = system: T8, O4F17
T8 sequence (whole entry): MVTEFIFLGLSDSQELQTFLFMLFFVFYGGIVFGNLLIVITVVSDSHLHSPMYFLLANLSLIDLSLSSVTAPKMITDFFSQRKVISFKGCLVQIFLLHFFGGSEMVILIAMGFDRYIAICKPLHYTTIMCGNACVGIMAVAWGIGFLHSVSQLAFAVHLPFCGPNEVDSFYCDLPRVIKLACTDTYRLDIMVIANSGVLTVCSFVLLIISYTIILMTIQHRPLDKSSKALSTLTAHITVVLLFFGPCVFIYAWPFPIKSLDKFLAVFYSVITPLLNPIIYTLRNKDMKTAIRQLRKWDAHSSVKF
In short: as §1

O4F17 [4] = system: T9, O4F17; remark: listed apart in the source
T9 sequence (whole entry): T8 sequence (whole entry) with E15G, Q293R
In short: as §1

O4F21 = system: T10, O4F21
T10 sequence (whole entry): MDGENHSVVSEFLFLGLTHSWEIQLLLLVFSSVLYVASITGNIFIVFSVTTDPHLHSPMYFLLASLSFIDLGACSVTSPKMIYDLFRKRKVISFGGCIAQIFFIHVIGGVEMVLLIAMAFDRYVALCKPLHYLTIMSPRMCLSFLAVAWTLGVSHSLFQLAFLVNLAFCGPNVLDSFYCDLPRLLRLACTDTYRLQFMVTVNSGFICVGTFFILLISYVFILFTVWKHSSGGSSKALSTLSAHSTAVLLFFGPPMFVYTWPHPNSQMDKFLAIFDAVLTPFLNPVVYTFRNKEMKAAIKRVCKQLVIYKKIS
In short: as §1

O51A4 = system: T11, O51A4
T11 sequence (whole entry): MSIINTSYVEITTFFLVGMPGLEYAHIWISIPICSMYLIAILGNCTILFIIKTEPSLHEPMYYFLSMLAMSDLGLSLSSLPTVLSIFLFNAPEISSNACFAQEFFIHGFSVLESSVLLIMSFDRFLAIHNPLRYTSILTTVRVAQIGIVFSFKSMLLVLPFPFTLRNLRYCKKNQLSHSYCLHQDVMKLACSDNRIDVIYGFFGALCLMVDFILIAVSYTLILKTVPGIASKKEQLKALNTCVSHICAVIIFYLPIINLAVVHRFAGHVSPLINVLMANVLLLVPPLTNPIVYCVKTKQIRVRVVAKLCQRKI
In short: as §1

O51B4 = system: T12, O51B4
T12 sequence (whole entry): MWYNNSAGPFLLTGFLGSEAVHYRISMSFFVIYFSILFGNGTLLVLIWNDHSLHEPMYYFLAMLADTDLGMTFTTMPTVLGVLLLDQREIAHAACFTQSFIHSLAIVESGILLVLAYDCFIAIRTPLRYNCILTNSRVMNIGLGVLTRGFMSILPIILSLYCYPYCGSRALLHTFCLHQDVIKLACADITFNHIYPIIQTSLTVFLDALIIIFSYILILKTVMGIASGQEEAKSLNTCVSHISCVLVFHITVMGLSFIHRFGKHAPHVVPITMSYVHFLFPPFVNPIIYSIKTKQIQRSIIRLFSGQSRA
In short: as §1

O51B5 = system: T13, O51B5
T13 sequence (whole entry): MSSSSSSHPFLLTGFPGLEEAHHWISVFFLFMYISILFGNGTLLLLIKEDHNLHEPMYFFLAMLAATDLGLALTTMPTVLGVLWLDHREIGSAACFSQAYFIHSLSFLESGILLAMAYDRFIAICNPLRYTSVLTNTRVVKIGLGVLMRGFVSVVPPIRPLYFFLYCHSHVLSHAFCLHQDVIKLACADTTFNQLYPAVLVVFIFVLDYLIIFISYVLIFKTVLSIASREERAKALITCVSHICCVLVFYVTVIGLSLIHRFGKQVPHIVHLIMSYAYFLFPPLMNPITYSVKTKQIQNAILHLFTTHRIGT
In short: as §1

O51B6 = system: T14, O51B6
T14 sequence (whole entry): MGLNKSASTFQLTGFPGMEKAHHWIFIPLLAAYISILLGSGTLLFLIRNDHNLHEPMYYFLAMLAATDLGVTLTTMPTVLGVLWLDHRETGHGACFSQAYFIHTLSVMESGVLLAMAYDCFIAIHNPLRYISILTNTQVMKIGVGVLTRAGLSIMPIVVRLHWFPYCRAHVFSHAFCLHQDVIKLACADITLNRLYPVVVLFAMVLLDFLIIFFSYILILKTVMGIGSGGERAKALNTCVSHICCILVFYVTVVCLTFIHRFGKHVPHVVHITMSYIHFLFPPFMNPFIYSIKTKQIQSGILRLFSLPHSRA
In short: as §1

O51E1 = system: T15, O51E1
T15 sequence (whole entry): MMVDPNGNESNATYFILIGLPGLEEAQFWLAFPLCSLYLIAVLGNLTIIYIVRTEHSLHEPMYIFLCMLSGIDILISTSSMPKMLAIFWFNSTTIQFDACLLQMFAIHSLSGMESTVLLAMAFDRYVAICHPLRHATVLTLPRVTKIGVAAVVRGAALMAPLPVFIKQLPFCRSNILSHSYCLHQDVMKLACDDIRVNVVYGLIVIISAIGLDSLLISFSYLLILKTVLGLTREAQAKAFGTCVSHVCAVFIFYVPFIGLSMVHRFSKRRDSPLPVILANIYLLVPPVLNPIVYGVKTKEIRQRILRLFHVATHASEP
In short: as §1

O51F1 = system: T16, O51F1
T16 sequence (whole entry): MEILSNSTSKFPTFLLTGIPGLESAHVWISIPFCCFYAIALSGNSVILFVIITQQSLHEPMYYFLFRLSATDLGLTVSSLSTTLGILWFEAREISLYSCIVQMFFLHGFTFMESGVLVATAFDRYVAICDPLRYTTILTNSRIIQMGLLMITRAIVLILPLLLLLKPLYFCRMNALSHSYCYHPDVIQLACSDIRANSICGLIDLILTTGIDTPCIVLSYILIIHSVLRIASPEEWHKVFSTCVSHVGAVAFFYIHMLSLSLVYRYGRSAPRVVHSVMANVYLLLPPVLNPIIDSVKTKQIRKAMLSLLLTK
In short: as §1

O51F2 = system: T17, O51F2
T17 sequence (whole entry): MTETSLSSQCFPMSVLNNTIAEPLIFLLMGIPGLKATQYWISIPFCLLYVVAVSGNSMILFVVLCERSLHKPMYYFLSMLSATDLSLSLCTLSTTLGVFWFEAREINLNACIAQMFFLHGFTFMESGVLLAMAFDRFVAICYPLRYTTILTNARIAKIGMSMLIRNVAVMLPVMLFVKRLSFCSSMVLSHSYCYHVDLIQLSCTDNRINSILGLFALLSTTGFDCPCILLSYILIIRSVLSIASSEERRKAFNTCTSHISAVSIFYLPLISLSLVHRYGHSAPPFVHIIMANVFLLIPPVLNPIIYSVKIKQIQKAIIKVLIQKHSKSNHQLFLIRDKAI
In short: as §1

Measured: odorant receptor agonist call

CC(C)C(=O)O
inactive: all assays above

C=CCc1ccc(OC(C)=O)c(OC)c1
active: O2T33 | O2T35 | O4A47 | O4F17 [4] | O4F21 | O51B4 | O51B5 | O51B6
inactive: all other assays above

CCC=CCCO
active: O51B4
inactive: all other assays above

CCCCCC(=O)O
active: O51B4
inactive: all other assays above

Source: the M2OR odorant receptor database
